# Measured data: PubChem BioAssay AID1671195 (Yale University, 2021)
# Purpose: 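Knockdowns that increase or decrease uptake of fluorescent LDL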 (primary screen)
# System: human Huh7 hepatoma cells
# Reagents: siRNA pool against human genes, 18 nM
# Timing: about 2 to 2.5 days of knockdown, then 8 h LDL uptake
# Treatment: DiI-labelled LDL at 30 µg/ml for 8 h, in lipoprotein-deficient serum medium
# Measurement: 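Fluorescent LDL signal imaged in cells, scaled to the plate median, robust z-score for each replicate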
# Direction: robust z-score: higher = more LDL uptake after knockdown
# Rule for the call: 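Active when two or more replicates show a robust z-score above 2 or below -2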
# The whole screen tested about 22,000 reagents; below is an unselected part. About 1,510 of them (6.9%) were called active. 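Active includes knockdowns raising or lowering LDL uptake; positive z-scores mean more uptake, negative mean less.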 Reagents against one gene are numbered here.
target,reagent no.,"robust z-score, replicate 1","robust z-score, replicate 2","robust z-score, replicate 3",outcome
MINAR1 (membrane integral NOTCH2 associated receptor 1),1,0.265,0.00347,0.0144,inactive
MRGPRX3 (MAS related GPR family member X3),1,1.41,2.35,3.26,active
ANKRD10 (ankyrin repeat domain 10),1,-2.66,-2.27,-2.19,active
PPIAP78 (peptidylprolyl isomerase A pseudogene 78),1,-1.24,-1.16,-0.751,inactive
TRPC3,1,-0.397,-0.819,-0.953,inactive
VN1R2 (vomeronasal 1 receptor 2),1,-0.634,-1.34,-0.551,inactive
"NUDT16L2P (nudix hydrolase 16 like 2, pseudogene)",1,0.786,-0.357,0.718,inactive
PTGS2 (prostaglandin-endoperoxide synthase 2),1,-1.33,-0.662,-0.999,inactive
RIPOR3 (RIPOR family member 3),1,0.654,0.164,0.421,inactive
RIPOR3 (RIPOR family member 3),2,-0.0262,0.759,0.362,inactive
AHSA1 (activator of HSP90 ATPase activity 1),1,0.672,0.0936,0.0451,inactive
OTOS (otospiralin),1,-0.378,-1.15,-0.105,inactive
CNPY3 (canopy FGF signaling regulator 3),1,1.2,-0.279,0.714,inactive
RALA (RAS like proto-oncogene A),1,1.38,0.573,0.807,inactive
BARX2 (BARX homeobox 2),1,-1.25,0.354,0.665,inactive
NCAM1 (neural cell adhesion molecule 1),1,-0.476,-0.303,0.987,inactive
LOC391711 (tripartite motif-containing protein 60-like),1,0.84,0.687,0.671,inactive
FXYD1 (FXYD domain containing ion transport regulator 1),1,0.191,0.502,0.321,inactive
ABCG2 (ATP binding cassette subfamily G member 2 (JR blood group)),1,0.514,0.644,-0.105,inactive
HSPA6 (heat shock protein family A (Hsp70) member 6),1,-0.588,-0.651,-0.402,inactive
NEU3 (neuraminidase 3),1,1.52,0.85,0.458,inactive
FSCN3 (fascin actin-bundling protein 3),1,-1.07,-1.86,-3.04,inactive
MYRFL (myelin regulatory factor like),1,-0.684,-0.443,0.93,inactive
"CCSAP (centriole, cilia and spindle associated protein)",1,0.157,-0.144,-1.07,inactive
TRDMT1 (tRNA aspartic acid methyltransferase 1),1,-0.337,1.38,-0.215,inactive
KRT18P36 (keratin 18 pseudogene 36),1,-1.75,-1.7,-1.47,inactive
ROGDI (rogdi atypical leucine zipper),1,-1.1,-1.02,-1.12,inactive
CHAT (choline O-acetyltransferase),1,-0.707,-0.754,-0.486,inactive
LOC439993 (retired record),1,-0.397,0.0182,-0.736,inactive
"PCDHGA10 (protocadherin gamma subfamily A, 10)",1,-0.365,-0.0128,-0.104,inactive
UGT1A7 (UDP glucuronosyltransferase family 1 member A7),1,-1.32,-1.49,-0.938,inactive
LINC01097 (long independently transcribed non-coding RNA 1097),1,-2.09,-2.21,-2.32,active
ZNF277 (zinc finger protein 277),1,-1.32,-2.19,-1.39,inactive
CACFD1 (calcium channel flower domain containing 1),1,1.11,1.07,1.43,inactive
ITPKC (inositol-trisphosphate 3-kinase C),1,-0.173,-0.326,-0.378,inactive
PCBD1 (pterin-4 alpha-carbinolamine dehydratase 1),1,-1.27,-1.06,-0.976,inactive
CAPN2 (calpain 2),1,-1.63,-0.88,-1.16,inactive
C22orf15 (chromosome 22 open reading frame 15),1,-0.968,-0.629,-1.56,inactive
PTPRN (protein tyrosine phosphatase receptor type N),1,0.45,0.465,0.338,inactive
CDCA7 (cell division cycle associated 7),1,-0.929,-0.801,-0.991,inactive
LOC441831 (retired record),1,-0.778,-0.0863,-0.232,inactive
NSUN3 (NOP2/Sun RNA methyltransferase 3),1,-0.222,-0.514,-0.639,inactive
RTL5 (retrotransposon Gag like 5),1,-0.249,-0.408,-0.514,inactive
ALB (albumin),1,0.778,-0.316,0.0515,inactive
PRLHR (prolactin releasing hormone receptor),1,-0.118,0.788,1.21,inactive
PTPRM (protein tyrosine phosphatase receptor type M),1,-0.978,-1.09,-1.29,inactive
LOC442141 (retired record),1,-0.0103,-0.434,-0.257,inactive
TECPR1 (tectonin beta-propeller repeat containing 1),1,0.000901,0.0176,0.0609,inactive
RHOG (ras homolog family member G),1,-0.0843,-0.781,0.736,inactive
GALNT17 (polypeptide N-acetylgalactosaminyltransferase 17),1,-0.266,-0.0777,-0.469,inactive
"FCGR1BP (Fc gamma receptor Ib, pseudogene)",1,-0.556,-0.641,-0.821,inactive
DCD (dermcidin),1,-0.945,-0.673,0.0728,inactive
LAMC1 (laminin subunit gamma 1),1,-0.259,-0.0422,0.192,inactive
KSR1 (kinase suppressor of ras 1),1,-0.638,-0.59,-0.587,inactive
OR5B2 (olfactory receptor family 5 subfamily B member 2),1,2.24,2.26,1.66,active
OR1L1 (olfactory receptor family 1 subfamily L member 1),1,0.764,-0.302,-1.6,inactive
ID2 (inhibitor of DNA binding 2),1,2.25,2.42,2.41,active
AMPD2 (adenosine monophosphate deaminase 2),1,0.0526,-0.382,-0.000724,inactive
IQCF2 (IQ motif containing F2),1,0.0226,-0.476,-0.314,inactive
CNIH3 (cornichon family AMPA receptor auxiliary protein 3),1,0.884,1.45,1.1,inactive
FAXC,1,0.381,-0.343,0.464,inactive
LOC400496 (retired record),1,-0.185,0.187,0.0698,inactive
PRR23E (PRR23 family member E),1,0.0863,0.639,0.303,inactive
CCDC77 (coiled-coil domain containing 77),1,0.83,0.472,0.175,inactive
TMEM255B (transmembrane protein 255B),1,-0.388,-0.785,-0.305,inactive
NSFL1C (NSFL1 cofactor),1,-0.0445,0.0988,0.0395,inactive
MAST2 (microtubule associated serine/threonine kinase 2),1,-0.224,0.961,0.562,inactive
OR10G2 (olfactory receptor family 10 subfamily G member 2),1,-0.356,-1.7,-0.43,inactive

Records listed so far whose gene name starts with I or i (3):
target,reagent no.,"robust z-score, replicate 1","robust z-score, replicate 2","robust z-score, replicate 3",outcome
ITPKC (inositol-trisphosphate 3-kinase C),1,-0.173,-0.326,-0.378,inactive
ID2 (inhibitor of DNA binding 2),1,2.25,2.42,2.41,active
IQCF2 (IQ motif containing F2),1,0.0226,-0.476,-0.314,inactive
